The values below come from PMC7819943, “Rice protein-binding microarrays: a tool to detect cis-acting elements near promoter regions in rice”.

The list shows a part of the results.

This assay addresses T1, OsSMF1 (Oryza sativa, UniProt Q6ZLB0 1-436).
T1 sequence: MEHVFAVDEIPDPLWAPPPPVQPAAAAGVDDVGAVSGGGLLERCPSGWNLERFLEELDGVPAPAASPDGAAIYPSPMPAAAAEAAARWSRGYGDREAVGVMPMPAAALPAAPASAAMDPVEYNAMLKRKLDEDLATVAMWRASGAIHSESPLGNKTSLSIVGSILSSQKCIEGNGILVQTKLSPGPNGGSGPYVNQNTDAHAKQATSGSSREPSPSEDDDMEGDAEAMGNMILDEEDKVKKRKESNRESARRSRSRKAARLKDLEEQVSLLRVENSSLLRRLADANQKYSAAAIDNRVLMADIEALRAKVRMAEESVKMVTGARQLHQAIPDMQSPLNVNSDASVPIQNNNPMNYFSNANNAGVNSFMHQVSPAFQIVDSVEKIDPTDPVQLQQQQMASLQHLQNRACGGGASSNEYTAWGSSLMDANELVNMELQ
Kind of assay: protein-binding microarray (RPBM); PBS, 2% BSA, 51.3 ng/ul salmon testes DNA, 50 uM zinc acetate, 200 nM TF, 25 C, 1 h; high values mean tight binding. The following applies: protein: recombinant; tags: N-terminal polyhistidine and DsRed monomer fusion (pET32a); chain copies: 2; label: CyDye5-dUTP incorporated in the synthesized complementary strand; 3' TTTTT single-stranded linker to array surface; dsDNA, one strand shown. Put shortly:
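Binding signal here means per-feature fluorescence intensity in arbitrary units. The values were read on an Axon 4000B scanner after a custom Agilent array, double-stranded by primer extension with Cy5-dUTP, was incubated with 200 nM protein at 25 °C for 1 h in PBS with 2% BSA, salmon testes DNA and 50 µM zinc acetate, then washed. The proteins were transcription factors with an N-terminal polyhistidine tag and DsRed, expressed in E. coli BL21-CodonPlus and purified on Ni–NTA.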
As to “ATACTATTGAAAATCCACCTATATGTACGTAATATTCGTGCGGAGTCACCTAGTGCAG”, the binding signal is 3760 fluorescence intensity (a.u.).
For “ACTACTGTCACCCCGACTGAGTCAGCATGGAACCCAGATCCGGAGTCACCTAGTGCAG”, the binding signal is 7180 fluorescence intensity (a.u.).
“TGCCTCACTTAATATGTGGCAAATTATGATATATTGTGGTCGGAGTCACCTAGTGCAG”: the binding signal was 3380 fluorescence intensity (a.u.).
To “TACCGCCTCATTTTGTGTGTTTCGGTGTGACGCAAGAGGCCGGAGTCACCTAGTGCAG” belongs 3720 fluorescence intensity (a.u.).
Regarding “AATCTGCACCGTCCGTCGAGCCTGCGGTCGTCACAGGCCGCGGAGTCACCTAGTGCAG”, the binding signal is 4430 fluorescence intensity (a.u.).
On to “GTCTAGATTCGTTGTATTAGGATGTGTCACATCCAATACTCGGAGTCACCTAGTGCAG”, for which the binding signal was 4230 fluorescence intensity (a.u.).
As for “CCTTGCTTGCTCATGTCATCCACCTGTGGTGGTTCTGGTGCGGAGTCACCTAGTGCAG”, the binding signal is 3970 fluorescence intensity (a.u.).
Under “CCACCCACCGCTCGCATCCACAGCTGCTGATTCGTAGGAGCGGAGTCACCTAGTGCAG” stands 30400 fluorescence intensity (a.u.); under “GAATTGAGCTTGACTGCCTGAGTCAACAAGGCAAGGCATCCGGAGTCACCTAGTGCAG”, 4800 fluorescence intensity (a.u.).
Under “CGACACAACACACAGACACACCCACGGAATTCCGCGAATCCGGAGTCACCTAGTGCAG” stands 4520 fluorescence intensity (a.u.).
To “TTCTCTCCGTCTTCCTCCAGCACTGAATTTGTCGCTGGCGCGGAGTCACCTAGTGCAG” belongs 64900 fluorescence intensity (a.u.); to “CCTGTTGCACACCACACCTACCATGAGTTCCTTTCAATCACGGAGTCACCTAGTGCAG”, 26900 fluorescence intensity (a.u.); to “CACTCCATCCGTTATTATAACCGTGTATAACAACTTCCTTCGGAGTCACCTAGTGCAG”, 14000 fluorescence intensity (a.u.).
Regarding “GACGTTGCGTGTCTAGTGTTGTGTGCGTGTGCATCTACCACGGAGTCACCTAGTGCAG”, the binding signal was 8650 fluorescence intensity (a.u.).
Consider “AATTGTTGACTGAACTACCACGTAGGACCAAAACCGCTCTCGGAGTCACCTAGTGCAG”, for which the binding signal was 5020 fluorescence intensity (a.u.).
Take “CCCGTTGCATCAGCCGTGACGCACTACCCGACTCCCGTGGCGGAGTCACCTAGTGCAG”: the binding signal was 4350 fluorescence intensity (a.u.).
Turning to “TGGTTGGTTTGACGCTACACGGTTGGTGTGCAGGTCTGCGCGGAGTCACCTAGTGCAG”, the binding signal was 3420 fluorescence intensity (a.u.).
To “AGTAGTATAGGGGAGAGGGTGGGCGGGTGATCGCTGGGCGCGGAGTCACCTAGTGCAG” belongs 3140 fluorescence intensity (a.u.).
Consider “GAAGAAACTAATGATATATACGCAGATATTGTTAATAATGCGGAGTCACCTAGTGCAG”, for which the binding signal was 34500 fluorescence intensity (a.u.).
Under “ACGAGTCGTGACATGAATCGCAGGTGGCAATAACCTCCTCCGGAGTCACCTAGTGCAG” stands 4450 fluorescence intensity (a.u.).
“CCAATCCTCTTCTCCATCCTATAAGACCCATTCTTCTTCTCGGAGTCACCTAGTGCAG”: the binding signal was 3550 fluorescence intensity (a.u.).
Take “CACGTGATCATAGATAGGATCTCACAGACCTGCTGATACTCGGAGTCACCTAGTGCAG”: the binding signal was 3440 fluorescence intensity (a.u.).
For “CACCCAGGTTCCGTGACTTGGTGGACTCTTGTCACGTGCTCGGAGTCACCTAGTGCAG”, the binding signal is 4740 fluorescence intensity (a.u.).
To “TCTACATCATGTTATCCGCGTCACATTACTAAAATCATAACGGAGTCACCTAGTGCAG” belongs 5280 fluorescence intensity (a.u.); to “CTGGCCTGCCAGCTGAGAAACTTTGGTATTTTAGTCATGCCGGAGTCACCTAGTGCAG”, 3150 fluorescence intensity (a.u.); to “AAAAGTCAATGGCGTCATACATTAAAATATGAAGGGAGTACGGAGTCACCTAGTGCAG”, 4170 fluorescence intensity (a.u.).
For “AGCGGCCGCCGATTACCCGAAGAACGTCACCTACCGCACTCGGAGTCACCTAGTGCAG”, the binding signal was 4560 fluorescence intensity (a.u.).
Under “GGAGGCCTAGGTGGTGGTGGTGGTCTTGGTGGAGGAGGGGCGGAGTCACCTAGTGCAG” stands 5410 fluorescence intensity (a.u.); under “TTAAGTGTAGTCATGAGTTTTCGTGTTCAACGTTTGACTGCGGAGTCACCTAGTGCAG”, 3580 fluorescence intensity (a.u.).
Regarding “TCACTTCTTGTTATCAATTATGACATGTCACATATGTATACGGAGTCACCTAGTGCAG”, the binding signal is 5680 fluorescence intensity (a.u.).
Under “TCCCGCAATGGCGCGACCACAGCTACCCACGTCGGACGCCCGGAGTCACCTAGTGCAG” stands 18200 fluorescence intensity (a.u.); under “TCTCCTCCGGCCCCACACGTCAGACGCACCCACCATCTGTCGGAGTCACCTAGTGCAG”, 9210 fluorescence intensity (a.u.); under “TCCACCGTCTGCTACTGCTAGCGTGCTACTGTCTCGCTGACGGAGTCACCTAGTGCAG”, 3350 fluorescence intensity (a.u.).
For the sequence “GTTCGAGAACCCGTCCACGTTCATCCCAAGCATATGCATCCGGAGTCACCTAGTGCAG”, the binding signal was 3900 fluorescence intensity (a.u.).
With “GTTTCTGGTTAAGACAATATAGCGTGCAGTCTCTATGTAACGGAGTCACCTAGTGCAG”, the binding signal was 3180 fluorescence intensity (a.u.).
Regarding “ACATCTGCTAGTCTATACTAGAATCCATTCTGACACTTGTCGGAGTCACCTAGTGCAG”, the binding signal is 3770 fluorescence intensity (a.u.).
To “TCGCCTCAGCTTCCTGCACCGACTACTAATACTTGATATTCGGAGTCACCTAGTGCAG” belongs 3460 fluorescence intensity (a.u.).
To “ATGCTCGCCACGTCCGGATCCATCAACCACGTCTCCTCCACGGAGTCACCTAGTGCAG” belongs 9390 fluorescence intensity (a.u.).
Consider “CTATGTGATGCTGTAGTAAACATGTACTAATTACGGATTACGGAGTCACCTAGTGCAG”, for which the binding signal is 8160 fluorescence intensity (a.u.).
To “AAGAAAGAGATGATGACGTGGCGTCCTGACATATGGGGCCCGGAGTCACCTAGTGCAG” belongs 32700 fluorescence intensity (a.u.); to “TTTGAAGCACAAGGATCGTACCGTGGCAGAGTATCTTCATCGGAGTCACCTAGTGCAG”, 4000 fluorescence intensity (a.u.).
For the sequence “GCCGTTCCTCCACGCCGCCGACGACGTCGCCTCCCTCCGTCGGAGTCACCTAGTGCAG”, the binding signal is 3450 fluorescence intensity (a.u.).
Take “ATGTTTGATTTAGATTATTAAGCAGATTATTATTGCAAACCGGAGTCACCTAGTGCAG”: the binding signal is 5070 fluorescence intensity (a.u.).
Turning to “CTGGTAGTGCATATACATACTTCACACGTCTAAATCCATGCGGAGTCACCTAGTGCAG”, the binding signal is 3940 fluorescence intensity (a.u.).
Take “GCCACAACAGTTTGGCTGATGTTTGGTTAATACGTGAGTTCGGAGTCACCTAGTGCAG”: the binding signal is 32500 fluorescence intensity (a.u.).
For the sequence “CCATTATTATAAAGTTTAAATTTGTATTTAAATAAATTTTCGGAGTCACCTAGTGCAG”, the binding signal is 3330 fluorescence intensity (a.u.).
In the case of “ATAAATATGTACACGTCGTTGTAGTGGCTCTGTGCTCGCTCGGAGTCACCTAGTGCAG”, the binding signal is 4670 fluorescence intensity (a.u.).
To “CGCCCCACGCGCGCGGTCCACTCCACCATCCCTTCCTCGTCGGAGTCACCTAGTGCAG” belongs 3170 fluorescence intensity (a.u.); to “AAGGGATTTTGGGTGGATGTGACACATCCTAGTACTACGACGGAGTCACCTAGTGCAG”, 5240 fluorescence intensity (a.u.); to “TACGAAAGTCCAAAAGATACCTGGTTACAGCTGGGTAGATCGGAGTCACCTAGTGCAG”, 3400 fluorescence intensity (a.u.).
Under “ATTCATCTCTCTCCATTTCCAATCCATCTCATCACCGACGCGGAGTCACCTAGTGCAG” stands 3640 fluorescence intensity (a.u.).
With “ATAGGGTGAGAAAGCACCTCGTTTTCCACGCGCACGCTTCCGGAGTCACCTAGTGCAG”, the binding signal is 3330 fluorescence intensity (a.u.).
Under “GAACATATCACATGCTCATATCAAAATTTATAATATTAAACGGAGTCACCTAGTGCAG” stands 35200 fluorescence intensity (a.u.).
Under “ACGCCGTTCGCTCATCCCAGGTGGGACGAGTTCATCCGCCCGGAGTCACCTAGTGCAG” stands 6840 fluorescence intensity (a.u.).
